According to PMC7453023:
These are yes or no findings as the source states them, for the method shown. Binding seen in cells or lysates may run through a third protein. Some entries that bind do so weakly or less than the wild type. For part of these data: Tags and fused reporters may be left off the sequences shown.

Sequences of proteins named here, by UniProt entry; tags and fusion partners are left off. Residues count along the entry.
UniProt O08573: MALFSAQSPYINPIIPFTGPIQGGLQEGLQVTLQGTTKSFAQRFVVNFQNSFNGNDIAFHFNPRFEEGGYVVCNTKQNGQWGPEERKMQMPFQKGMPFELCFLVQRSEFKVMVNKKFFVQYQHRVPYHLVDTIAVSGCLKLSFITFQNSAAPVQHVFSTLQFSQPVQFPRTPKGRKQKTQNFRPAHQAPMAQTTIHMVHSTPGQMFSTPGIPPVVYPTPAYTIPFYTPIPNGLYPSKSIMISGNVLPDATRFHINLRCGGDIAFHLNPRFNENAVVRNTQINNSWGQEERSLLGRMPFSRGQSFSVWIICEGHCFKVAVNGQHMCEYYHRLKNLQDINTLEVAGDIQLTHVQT
UniProt Q07113, residues 36-2483: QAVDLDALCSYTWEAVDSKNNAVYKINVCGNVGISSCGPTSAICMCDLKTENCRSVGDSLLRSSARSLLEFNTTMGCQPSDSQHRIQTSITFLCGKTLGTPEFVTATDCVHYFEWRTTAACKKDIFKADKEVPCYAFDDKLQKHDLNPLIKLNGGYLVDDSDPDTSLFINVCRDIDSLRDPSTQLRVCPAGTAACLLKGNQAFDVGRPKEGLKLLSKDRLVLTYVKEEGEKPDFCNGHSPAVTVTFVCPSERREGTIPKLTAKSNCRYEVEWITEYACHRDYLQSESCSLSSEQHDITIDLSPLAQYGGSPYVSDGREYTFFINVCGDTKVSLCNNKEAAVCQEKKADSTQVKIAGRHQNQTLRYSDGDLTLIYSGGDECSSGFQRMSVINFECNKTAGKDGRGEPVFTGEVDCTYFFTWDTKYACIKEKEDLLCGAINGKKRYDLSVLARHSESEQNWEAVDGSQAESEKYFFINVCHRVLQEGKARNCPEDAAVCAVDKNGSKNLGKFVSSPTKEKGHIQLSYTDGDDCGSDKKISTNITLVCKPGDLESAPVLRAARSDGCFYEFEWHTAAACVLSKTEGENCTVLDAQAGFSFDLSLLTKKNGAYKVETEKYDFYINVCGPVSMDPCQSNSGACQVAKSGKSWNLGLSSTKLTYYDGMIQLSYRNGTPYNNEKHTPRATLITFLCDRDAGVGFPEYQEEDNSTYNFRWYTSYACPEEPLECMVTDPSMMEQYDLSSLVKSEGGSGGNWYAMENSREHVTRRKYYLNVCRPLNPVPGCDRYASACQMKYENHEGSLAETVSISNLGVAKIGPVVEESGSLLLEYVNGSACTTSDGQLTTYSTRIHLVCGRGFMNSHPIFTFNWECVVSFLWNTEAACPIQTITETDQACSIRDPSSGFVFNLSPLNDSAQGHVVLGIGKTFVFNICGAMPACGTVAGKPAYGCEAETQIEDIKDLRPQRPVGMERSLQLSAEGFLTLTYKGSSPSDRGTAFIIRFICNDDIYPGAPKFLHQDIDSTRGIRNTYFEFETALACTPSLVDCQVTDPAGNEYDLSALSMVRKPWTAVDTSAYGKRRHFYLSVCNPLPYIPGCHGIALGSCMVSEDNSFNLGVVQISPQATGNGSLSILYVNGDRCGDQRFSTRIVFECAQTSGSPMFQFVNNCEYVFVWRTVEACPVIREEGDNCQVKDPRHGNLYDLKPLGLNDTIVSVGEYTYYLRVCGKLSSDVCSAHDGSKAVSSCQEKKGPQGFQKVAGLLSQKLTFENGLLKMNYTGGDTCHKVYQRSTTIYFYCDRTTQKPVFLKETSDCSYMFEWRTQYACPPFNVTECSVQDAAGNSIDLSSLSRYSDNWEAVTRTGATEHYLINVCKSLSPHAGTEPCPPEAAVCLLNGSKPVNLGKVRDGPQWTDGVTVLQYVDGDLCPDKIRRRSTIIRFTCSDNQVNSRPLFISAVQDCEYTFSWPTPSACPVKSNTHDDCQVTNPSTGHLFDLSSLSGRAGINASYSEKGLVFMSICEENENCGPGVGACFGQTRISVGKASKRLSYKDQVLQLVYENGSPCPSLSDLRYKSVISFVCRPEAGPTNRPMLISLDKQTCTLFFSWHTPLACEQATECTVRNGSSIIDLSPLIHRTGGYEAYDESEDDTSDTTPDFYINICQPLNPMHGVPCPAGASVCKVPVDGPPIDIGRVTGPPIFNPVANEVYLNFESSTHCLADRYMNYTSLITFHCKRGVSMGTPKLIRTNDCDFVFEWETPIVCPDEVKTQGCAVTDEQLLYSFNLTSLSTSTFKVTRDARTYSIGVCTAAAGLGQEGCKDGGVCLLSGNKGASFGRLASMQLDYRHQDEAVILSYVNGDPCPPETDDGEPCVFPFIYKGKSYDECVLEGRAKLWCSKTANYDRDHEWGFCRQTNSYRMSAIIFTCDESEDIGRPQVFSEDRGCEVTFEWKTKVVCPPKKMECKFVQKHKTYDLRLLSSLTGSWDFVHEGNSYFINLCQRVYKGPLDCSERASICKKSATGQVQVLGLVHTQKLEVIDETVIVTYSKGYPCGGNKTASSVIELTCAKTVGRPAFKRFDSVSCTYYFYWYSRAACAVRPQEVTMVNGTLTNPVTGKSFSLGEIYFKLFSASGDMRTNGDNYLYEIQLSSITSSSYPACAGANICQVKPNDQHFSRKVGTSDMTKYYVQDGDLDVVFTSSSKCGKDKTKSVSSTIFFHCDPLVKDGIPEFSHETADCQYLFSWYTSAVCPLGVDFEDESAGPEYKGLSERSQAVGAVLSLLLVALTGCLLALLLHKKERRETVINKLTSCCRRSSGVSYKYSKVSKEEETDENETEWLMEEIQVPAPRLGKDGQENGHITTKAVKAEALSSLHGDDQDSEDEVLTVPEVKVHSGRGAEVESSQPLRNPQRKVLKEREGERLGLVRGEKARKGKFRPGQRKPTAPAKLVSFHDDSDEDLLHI

B1: lysosome-associated membrane protein 2 (Lamp2) (protein, UniProt P17047 26-415)
chain: LIVNLTDSKGTCLYAEWEMNFTITYETTNQTNKTITIAVPDKATHDGSSCGDDRNSAKIMIQFGFAVSWAVNFTKEASHYSIHDIVLSYNTSDSTVFPGAVAKGVHTVKNPENFKVPLDVIFKCNSVLTYNLTPVVQKYWGIHLQAFVQNGTVSKNEQVCEEDQTPTTVAPIIHTTAPSTTTTLTPTSTPTPTPTPTPTVGNYSIRNGNTTCLLATMGLQLNITEEKVPFIFNINPATTNFTGSCQPQSAQLRLNNSQIKYLDFIFAVKNEKRFYLKEVNVYMYLANGSAFNISNKNLSFWDAPLGSSYMCNKEQVLSVSRAFQINTFNLKVQPFNVTKGQYSTAQDCSADEDNFLVPIAVGAALGGVLILVLLAYFIGLKRHHTGYEQF
modifications: N-glycosylated (poly-LacNAc)
B2: V5-tagged Lamp2, wild type (protein, UniProt P17047 26-415)
chain: B1 chain
modifications: N-glycosylated

Legend:
[1] = molecular target: Flag-tagged Gal-9 (galectin-9), wild type (UniProt O08573); test: co-IP; CMT93 cells, Western blot; also in β3gnt2 or β4galt1 gene-knockdown CMT93 cells (binding of Gal-9 to Lamp2 decreased)
[2] = molecular target: Flag-tagged Gal-9 (galectin-9), wild type (UniProt O08573); test: co-IP; Lamp1/2-/- CMT93 cells stably reconstituted with Flag-tagged Gal-9 and V5-tagged Lamp2 or its mutants, Western blot

| Molecule | binding [1] | binding [2] |
| --- | --- | --- |
| Igf2r (Insulin-like growth factor 2 receptor or cation-independent mannose-6-phosphate receptor, CI-M6PR) (from UniProt Q07113 36-2483) | binds | – |
| B1 | binds | – |
| B2 | – | binds |
